Results as given in patent US20200138854A1, “Method of Detecting and Quantifying Bile Acid from Saliva” (Ironwood Pharmaceuticals, Inc., priority 2017, published 2020).
Several values for one entry are separate records, joined by “and”; a condition that tells them apart may be missing. Identical values can stand only once. For at least one compound, name, drawing or mass did not settle the structure.

Legend:
[1] = Frozen (−20° C.) short-term stability in cholestyramine-treated human saliva; details: for % Bias QC-LLOQ: nominal 0.500 ng/mL; for % Bias QC-LLOQ / % Bias QC-Mid / % Bias QC-High: cholestyramine-treated human saliva; for % Bias QC-Mid: nominal 8.00 ng/mL; for % Bias / Concentration, Mean: −20° C.
Procedure: Quality control samples for the evaluation of accuracy and precision and for run acceptance were prepared on the day of sample extraction. QC samples prepared in cholestyramine-treated saliva are to be prepared in small volumes for analysis. Stability for these QC samples would be limited to short-term storage (i.e., 2 days) whereas untreated human saliva would be evaluated for long-term storage.
For stability in cholestyramine-treated human saliva, samples were prepared by spiking cholestyramine-treated human saliva with each analyte at the QC-LLOQ, QC-Low, QC-Mid and QC-High levels. The samples were stored in a −20° C. freezer. After 1 day and 2 days of storage, each sample was extracted in replicates of four for analysis.

[2] = Long-term (1 month at −20° C. and −80° C.) stability in untreated human saliva; details: QC-High, nominal 800 ng/mL
[3] = 1 Day, QC-High, nominal 800 ng/mL
[4] = 1 Day, QC-Mid, nominal 80.0 ng/mL
[5] = 2 Days, QC-High, nominal 800 ng/mL
[6] = 2 Days, QC-Mid, nominal 80.0 ng/mL

Structure (SMILES) | % Bias QC-LLOQ ([1]; 1 Day frozen (−20° C.)) [%] | % Bias QC-LLOQ ([1]; 2 Days frozen (−20° C.)) [%] | % Bias QC-Mid ([1]; 1 Day frozen (−20° C.)) [%] | % Bias QC-Mid ([1]; 2 Days frozen (−20° C.)) [%] | % Bias QC-High ([1]; nominal 80.0 ng/mL, 1 Day frozen (−20° C.)) [%] | % Bias QC-High ([1]; nominal 80.0 ng/mL, 2 Days frozen (−20° C.)) [%] | % Bias [1, 3] [%] | Concentration, Mean [1, 3] [ng/mL] | % Bias [1, 4] [%] | Concentration, Mean [1, 4] [ng/mL] | % Bias [1, 5] [%] | Concentration, Mean [1, 5] [ng/mL] | % Bias [1, 6] [%] | Concentration, Mean [1, 6] [ng/mL] | % Bias ([2]; −20° C. Storage) [%] | Concentration, Mean ([2]; −20° C. Storage) [ng/mL] | Difference from Fresh (%) ([2]; −20° C. Storage) | % Bias ([2]; −80° C. Storage) [%] | Concentration, Mean ([2]; −80° C. Storage) [ng/mL] | Concentration ([2]; −80° C. Storage, individual values)
C[C@H](CCC(=O)O)[C@H]1CC[C@H]2[C@@H]3CC[C@@H]4C[C@H](O)CC[C@]4(C)[C@H]3C[C@H](O)[C@]12C [Deoxycholic Acid, Deoxycholic acid] | −5.3 | 14.3 | −13.4 | 2.3 | −15.3 | −0.2 |  |  |  |  |  |  |  |  |  |  |  |  |  | 
C[C@H](CCC(=O)O)[C@H]1CC[C@H]2[C@@H]3CC[C@@H]4C[C@H](O)CC[C@]4(C)[C@H]3CC[C@]12C [Lithocholic Acid, Lithocholic acid] |  |  |  |  |  |  | −9.1 | 728 | 1.8 | 81.4 | 1.6 | 813 | 8.6 | 86.9 | −0.1 | 799 | 0.8 | −14.1 | 687 | 670 ng/mL and 683 ng/mL and 708 ng/mL
